From article PMC4257679
No constants are given. Whether binding was seen depends on the method and setting. Binding seen in cells or lysates may run through a third protein. Some binding calls cover weakened binding; strength is not graded here.

The chains behind the UniProt entries cited, without tags or fusion partners.
UniProt P62629: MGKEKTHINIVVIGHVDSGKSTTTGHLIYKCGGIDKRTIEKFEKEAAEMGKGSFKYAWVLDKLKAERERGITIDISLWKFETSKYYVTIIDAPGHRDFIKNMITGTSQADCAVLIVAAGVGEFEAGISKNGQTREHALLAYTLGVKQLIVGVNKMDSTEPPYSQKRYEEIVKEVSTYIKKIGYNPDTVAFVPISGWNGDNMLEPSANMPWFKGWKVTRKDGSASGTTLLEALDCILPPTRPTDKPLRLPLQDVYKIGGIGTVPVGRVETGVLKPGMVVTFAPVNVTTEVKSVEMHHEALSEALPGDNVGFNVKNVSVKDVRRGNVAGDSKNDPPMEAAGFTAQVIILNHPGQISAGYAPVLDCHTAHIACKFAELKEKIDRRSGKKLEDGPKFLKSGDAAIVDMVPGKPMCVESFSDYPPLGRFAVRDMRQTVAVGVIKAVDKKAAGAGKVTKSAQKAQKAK
UniProt Q14152: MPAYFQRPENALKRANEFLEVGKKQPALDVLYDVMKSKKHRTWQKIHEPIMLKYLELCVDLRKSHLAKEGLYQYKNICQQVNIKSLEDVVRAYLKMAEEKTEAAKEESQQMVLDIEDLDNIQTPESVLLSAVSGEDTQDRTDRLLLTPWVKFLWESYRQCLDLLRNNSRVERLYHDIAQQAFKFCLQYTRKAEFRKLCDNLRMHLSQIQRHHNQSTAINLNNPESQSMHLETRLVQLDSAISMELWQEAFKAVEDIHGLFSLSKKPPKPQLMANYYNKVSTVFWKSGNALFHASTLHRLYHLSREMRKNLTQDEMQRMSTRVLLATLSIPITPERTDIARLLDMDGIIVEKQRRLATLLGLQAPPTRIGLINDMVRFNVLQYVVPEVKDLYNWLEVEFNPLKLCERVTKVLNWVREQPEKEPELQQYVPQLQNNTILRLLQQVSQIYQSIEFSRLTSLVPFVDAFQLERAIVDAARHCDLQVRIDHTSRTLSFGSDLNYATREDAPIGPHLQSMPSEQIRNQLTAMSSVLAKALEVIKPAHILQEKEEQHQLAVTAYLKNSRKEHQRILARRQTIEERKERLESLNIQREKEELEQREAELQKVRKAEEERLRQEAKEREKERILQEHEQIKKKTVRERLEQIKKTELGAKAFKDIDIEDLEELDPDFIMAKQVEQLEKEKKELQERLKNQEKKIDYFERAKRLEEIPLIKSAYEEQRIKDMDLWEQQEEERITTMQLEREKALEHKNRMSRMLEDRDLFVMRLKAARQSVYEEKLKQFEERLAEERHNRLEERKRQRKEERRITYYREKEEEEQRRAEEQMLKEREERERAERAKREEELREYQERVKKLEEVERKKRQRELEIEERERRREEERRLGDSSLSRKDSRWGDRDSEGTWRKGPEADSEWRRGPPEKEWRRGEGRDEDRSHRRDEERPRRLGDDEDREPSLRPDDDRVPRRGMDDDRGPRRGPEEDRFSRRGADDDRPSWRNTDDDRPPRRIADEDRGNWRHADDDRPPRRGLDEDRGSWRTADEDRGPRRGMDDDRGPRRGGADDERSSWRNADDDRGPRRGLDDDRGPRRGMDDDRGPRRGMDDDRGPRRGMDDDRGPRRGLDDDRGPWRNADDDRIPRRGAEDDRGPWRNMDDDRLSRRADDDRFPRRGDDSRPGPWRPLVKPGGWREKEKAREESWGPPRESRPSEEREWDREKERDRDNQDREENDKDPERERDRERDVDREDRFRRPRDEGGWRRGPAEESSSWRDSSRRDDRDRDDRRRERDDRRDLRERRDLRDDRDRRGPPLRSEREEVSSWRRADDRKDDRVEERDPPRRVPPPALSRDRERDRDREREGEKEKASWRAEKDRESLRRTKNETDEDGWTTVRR
UniProt P03418: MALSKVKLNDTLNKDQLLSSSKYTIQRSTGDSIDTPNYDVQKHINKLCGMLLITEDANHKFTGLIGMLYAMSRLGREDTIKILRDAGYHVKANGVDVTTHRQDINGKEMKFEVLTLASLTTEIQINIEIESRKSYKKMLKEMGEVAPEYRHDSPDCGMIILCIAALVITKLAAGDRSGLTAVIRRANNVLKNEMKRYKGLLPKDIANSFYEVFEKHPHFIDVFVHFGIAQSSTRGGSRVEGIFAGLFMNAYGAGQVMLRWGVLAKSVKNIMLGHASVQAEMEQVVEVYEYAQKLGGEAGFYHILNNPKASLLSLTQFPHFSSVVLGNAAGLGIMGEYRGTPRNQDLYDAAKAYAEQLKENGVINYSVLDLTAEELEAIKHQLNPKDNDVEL
UniProt P03421: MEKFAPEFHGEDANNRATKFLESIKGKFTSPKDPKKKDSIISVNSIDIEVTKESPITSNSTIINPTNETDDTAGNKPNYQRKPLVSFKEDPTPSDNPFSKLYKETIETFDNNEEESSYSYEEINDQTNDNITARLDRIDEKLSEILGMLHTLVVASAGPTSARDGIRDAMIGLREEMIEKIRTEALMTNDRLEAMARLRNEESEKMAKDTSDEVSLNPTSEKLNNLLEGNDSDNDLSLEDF

How the values were obtained:
[1] = target: eEF1A of BSR-T7 cells (not stated (endogenous in BSR-T7 cells)) (UniProt P62629); experiment: co-IP; lysates of BSR-T7 cells transfected with a plasmid for RSV N or RSV P alone (48 h); beads coupled to anti-eEF1A antibody or beads only; blot with anti-RSV polyclonal and anti-eEF1A
[2] = target: human transcription initiation factor eIF3A (human) (UniProt Q14152); experiment: proximity ligation; Duolink II PLA in RSV-infected (MOI 1 pfu/cell) A549 cells fixed with acetone/methanol 24 h after infection; primary antibodies to eEF1A (or eIF3A as control) and to RSV N or P; foci counted per cell

RSV N expressed singly from a pTM plasmid (from UniProt P03418 1-391)
binding [1]: binds

RSV P expressed singly from a pTM plasmid (from UniProt P03421 1-241)
binding [1]: no binding

RSV nucleocapsid (N) protein, from RSV A2 infection (from UniProt P03418 1-391)
binding [2]: no binding

RSV phosphoprotein (P), from RSV A2 infection (from UniProt P03421 1-241)
binding [2]: no binding
